The source of these data is PubChem BioAssay AID220 (DTP/NCI, 2004).

Structures are written as SMILES. The list does not hold the whole screen: it gathers tests that were run many times, whatever their T/C, doses with no T/C, and many T/C values between a quarter and a half above the control. Further doses and runs are listed elsewhere. T/C is the treated group as % of the vehicle group. Schedule codes are those of the source, read here as Q, the interval in days (D) or hours (H), X, the number of doses. Some T/C values are followed by the survivors on the day toxicity was checked, most often the fifth; where none is given, no animal had died by that day. Some entries hold several experiments; their values stand side by side, smallest first. Counts like (3×) count equal records among those shown. Some T/C values are negative: the treated tumours shrank. Some entries give survivors of the animals treated and no T/C: the source holds a T/C of zero for them, seemingly a mark for toxic or unscored doses. Counts of survivors are from the toxicity check (mostly the fifth day) where no day follows; animals may have died later.

In this test the test system is CD8F1 mice, subcutaneous mammary adenocarcinoma, T/C%. Description: NCI In Vivo Anticancer Drug Screen. Data for tumor model Mammary Adenocarcinoma CD8F1 (subcutaneous) in CD8F1. Conditions: higher T/C = larger tumour. A digest of the protocol:
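Mice carrying transplanted tumors received test compound, and survival or tumor size was recorded. Each value is the treated-group measurement divided by the corresponding measurement in vehicle-dosed controls.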

As for `COc1cccc2c1C(=O)c1c(O)c3c(c(O)c1C2=O)C[C@@](O)(C(=O)CO)C[C@@H]3OC1CC(N)C(O)C(C)O1` (some centres not stated), the T/C reads like this: (T/C endpoint: mean tumor weight, dose: 1.0 mg/kg/injection, schedule: Q07DX006 (ip), vehicle: saline, evaluated on day 50) 144 % of control; (T/C endpoint: median tumor weight (est.), dose: 0.5 mg/kg/injection, schedule: Q07DX005 (ip), vehicle: saline, evaluated on day 30) 53, 70, 71, 92 [8 of 9 alive], 97 % of control; (T/C endpoint: median tumor weight (est.), dose: 0.5 mg/kg/injection, schedule: Q07DX005 (ip), vehicle: saline, evaluated on day 32) 67 % of control; (T/C endpoint: median tumor weight (est.), dose: 0.5 mg/kg/injection, schedule: Q07DX005 (ip), vehicle: saline, evaluated on day 34) 113 % of control; (T/C endpoint: median tumor weight (est.), dose: 0.5 mg/kg/injection, schedule: Q07DX005 (ip), vehicle: water, evaluated on day 30) 32, 46, 76, 82, 113 % of control [9 of 10 alive]; (T/C endpoint: median tumor weight (est.), dose: 1.0 mg/kg/injection, schedule: Q07DX005 (ip), vehicle: saline, evaluated on day 30) 20, 52, 89, 92, 139 % of control. For the same molecule, the T/C (T/C endpoint: median tumor weight (est.), dose: 1.0 mg/kg/injection, schedule: Q07DX005 (ip), vehicle: saline, evaluated on day 32) is 111 % of control; the T/C (T/C endpoint: median tumor weight (est.), dose: 1.0 mg/kg/injection, schedule: Q07DX005 (ip), vehicle: saline, evaluated on day 34) was 37 % of control [9 of 10 alive]; the T/C (T/C endpoint: median tumor weight (est.), dose: 1.0 mg/kg/injection, schedule: Q07DX005 (ip), vehicle: water, evaluated on day 30) is 23, 48, 57 (2×), 78 % of control; the T/C (T/C endpoint: median tumor weight (est.), dose: 2.0 mg/kg/injection, schedule: Q07DX005 (ip), vehicle: saline, evaluated on day 30) was 16, 31 (2×), 36, 63 % of control; the T/C (T/C endpoint: median tumor weight (est.), dose: 2.0 mg/kg/injection, schedule: Q07DX005 (ip), vehicle: saline, evaluated on day 32) is 70 % of control; the T/C (T/C endpoint: median tumor weight (est.), dose: 2.0 mg/kg/injection, schedule: Q07DX005 (ip), vehicle: saline, evaluated on day 34) is 16 % of control. Besides, the T/C was 20, 31 [9 of 10 alive], 40, 57, 61 % of control (T/C endpoint: median tumor weight (est.), dose: 2.0 mg/kg/injection, schedule: Q07DX005 (ip), vehicle: water, evaluated on day 30); 11, 21, 36 % of control (T/C endpoint: median tumor weight (est.), dose: 4.0 mg/kg/injection, schedule: Q07DX005 (ip), vehicle: saline, evaluated on day 30); 11 % of control (T/C endpoint: median tumor weight (est.), dose: 4.0 mg/kg/injection, schedule: Q07DX005 (ip), vehicle: saline, evaluated on day 32); 14, 19 [9 of 10 alive], 27, 59 % of control [9 of 10 alive] (T/C endpoint: median tumor weight (est.), dose: 4.0 mg/kg/injection, schedule: Q07DX005 (ip), vehicle: water, evaluated on day 30); 63 % of control (T/C endpoint: median tumor weight change, dose: 4.4 mg/kg/injection, schedule: Q01DX001 (ip), vehicle: saline, evaluated on day 30); 8 and 35 % of control (T/C endpoint: median tumor weight change, dose: 4.4 mg/kg/injection, schedule: Q01DX001 (ip), vehicle: saline, evaluated on day 33). Also, the T/C runs as follows: (T/C endpoint: median tumor weight change, dose: 4.4 mg/kg/injection, schedule: Q01DX001 (ip), vehicle: saline, evaluated on day 35) 91 % of control; (T/C endpoint: median tumor weight change, dose: 6.7 mg/kg/injection, schedule: Q01DX001 (ip), vehicle: saline, evaluated on day 30) 49 % of control; (T/C endpoint: median tumor weight change, dose: 6.7 mg/kg/injection, schedule: Q01DX001 (ip), vehicle: saline, evaluated on day 33) -1 and 16 % of control; (T/C endpoint: median tumor weight change, dose: 6.7 mg/kg/injection, schedule: Q01DX001 (ip), vehicle: saline, evaluated on day 35) 78 % of control; (T/C endpoint: median tumor weight change, dose: 10.0 mg/kg/injection, schedule: Q01DX001 (ip), vehicle: saline, evaluated on day 30) 32 % of control; (T/C endpoint: median tumor weight change, dose: 10.0 mg/kg/injection, schedule: Q01DX001 (ip), vehicle: saline, evaluated on day 33) -32 % of control (2×). The T/C is 52 % of control [9 of 10 alive on day 33] (T/C endpoint: median tumor weight change, dose: 10.0 mg/kg/injection, schedule: Q01DX001 (ip), vehicle: saline, evaluated on day 35); 13 % of control [7 of 10 alive on day 27] (T/C endpoint: median tumor weight change, dose: 15.0 mg/kg/injection, schedule: Q01DX001 (ip), vehicle: saline, evaluated on day 27); -40 % of control [9 of 10 alive on day 27] (T/C endpoint: median tumor weight change, dose: 15.0 mg/kg/injection, schedule: Q01DX001 (ip), vehicle: saline, evaluated on day 30); -66 and -65 % of control (T/C endpoint: median tumor weight change, dose: 15.0 mg/kg/injection, schedule: Q01DX001 (ip), vehicle: saline, evaluated on day 33). The survivor count (T/C endpoint: median tumor weight (est.), dose: 4.0 mg/kg/injection, schedule: Q07DX005 (ip), vehicle: saline) is given as 6 of 10 on day 30; the survivor count (T/C endpoint: median tumor weight (est.), dose: 4.0 mg/kg/injection, schedule: Q07DX005 (ip), vehicle: water) is 1 of 10; the survivor count (T/C endpoint: median tumor weight (est.), dose: 5.0 mg/kg/injection, schedule: Q07DX005 (ip), vehicle: saline) was 1 of 10 on day 30; the survivor count (T/C endpoint: median tumor weight (est.), dose: 6.0 mg/kg/injection, schedule: Q07DX005 (ip), vehicle: saline) was 2 of 10 on day 30; the survivor count (T/C endpoint: median tumor weight (est.), dose: 8.0 mg/kg/injection, schedule: Q07DX005 (ip), vehicle: saline) was 0 of 10 on day 30 and 2 of 10 on day 30; the survivor count (T/C endpoint: median tumor weight (est.), dose: 10.0 mg/kg/injection, schedule: Q07DX005 (ip), vehicle: saline) is on record as 0 of 10 on day 30. Moreover, the survivor count was 0 of 10 on day 30 (T/C endpoint: median tumor weight (est.), dose: 16.0 mg/kg/injection, schedule: Q07DX005 (ip), vehicle: saline); 0 of 10 on day 30 (T/C endpoint: median tumor weight (est.), dose: 16.0 mg/kg/injection, schedule: Q07DX005 (ip), vehicle: water); 0 of 10 on day 30 (T/C endpoint: median tumor weight (est.), dose: 20.0 mg/kg/injection, schedule: Q07DX005 (ip), vehicle: saline); 0 of 10 on day 30 (T/C endpoint: median tumor weight (est.), dose: 32.0 mg/kg/injection, schedule: Q07DX005 (ip), vehicle: water); 0 of 10 on day 30 (T/C endpoint: median tumor weight (est.), dose: 40.0 mg/kg/injection, schedule: Q07DX005 (ip), vehicle: saline); 6 of 10 on day 33 (T/C endpoint: median tumor weight change, dose: 15.0 mg/kg/injection, schedule: Q01DX001 (ip), vehicle: saline). Where the note is “T/C endpoint: median tumor weight change, dose: 30.0 mg/kg/injection, schedule: Q01DX001 (ip), vehicle: saline”, the survivor count is given as 1 of 10 on day 27.

Regarding `O=[N+]([O-])c1ccc(Sc2ccncn2)c([N+](=O)[O-])c1`, the survivor count runs as follows: (T/C endpoint: median tumor weight change, dose: 250.0 mg/kg/injection, schedule: Q01DX001 (ip), vehicle: saline with Tween-80) 4 of 10 on day 34; (T/C endpoint: median tumor weight change, dose: 500.0 mg/kg/injection, schedule: Q01DX001 (ip), vehicle: saline with Tween-80) 1 of 10 on day 34; (T/C endpoint: median tumor weight change, dose: 1000.0 mg/kg/injection, schedule: Q01DX001 (ip), vehicle: saline with Tween-80) 1 of 10 on day 34.

Take `C=C(C)C12CC(C)C34OC(CCCCCCCCCCC)(OC1C3C1OC1(CO)C(O)C1(O)C(=O)C(C)=CC14C)O2` (configuration not stated): the T/C (T/C endpoint: median tumor weight (est.), dose: 50.0 micrograms/kg/injection, schedule: Q07DX005 (ip), vehicle: saline + alcohol, evaluated on day 30) is 129 % of control.

As for `NC(N)=NC(N)=Nc1ccc(-c2ccc(N=C(N)N=C(N)N)cc2)cc1`, the T/C (T/C endpoint: median tumor weight (est.), dose: 25.0 mg/kg/injection, schedule: Q07DX005 (ip), vehicle: saline with Tween-80, evaluated on day 30) is 145 % of control. The survivor count is 1 of 10 on day 30 (T/C endpoint: median tumor weight (est.), dose: 50.0 mg/kg/injection, schedule: Q07DX005 (ip), vehicle: saline with Tween-80) and 0 of 10 on day 30 (T/C endpoint: median tumor weight (est.), dose: 100.0 mg/kg/injection, schedule: Q07DX005 (ip), vehicle: saline with Tween-80).

As for `CC(=O)C(=O)O.CC(=O)C(=O)O.[NH-]C1CCCCC1[NH-].[Pt+2]` (configuration not stated), the survivor count by setting is: (T/C endpoint: median tumor weight change, dose: 125.0 mg/kg/injection, schedule: Q01DX001 (ip), vehicle: dextrose) 0 of 10 on day 34; (T/C endpoint: median tumor weight change, dose: 250.0 mg/kg/injection, schedule: Q01DX001 (ip), vehicle: dextrose) 1 of 10 on day 34; (T/C endpoint: median tumor weight change, dose: 500.0 mg/kg/injection, schedule: Q01DX001 (ip), vehicle: dextrose) 0 of 10 on day 34; (T/C endpoint: median tumor weight change, dose: 1000.0 mg/kg/injection, schedule: Q01DX001 (ip), vehicle: dextrose) 0 of 10 on day 34.
